PMC11236980
Results are given in words; binding and its absence hold for the method and conditions named. In cells and extracts the contact can be indirect. Some entries that bind do so weakly or less than the wild type.

Amino acid sequences for entries named in this document (tags omitted).
UniProt O75417: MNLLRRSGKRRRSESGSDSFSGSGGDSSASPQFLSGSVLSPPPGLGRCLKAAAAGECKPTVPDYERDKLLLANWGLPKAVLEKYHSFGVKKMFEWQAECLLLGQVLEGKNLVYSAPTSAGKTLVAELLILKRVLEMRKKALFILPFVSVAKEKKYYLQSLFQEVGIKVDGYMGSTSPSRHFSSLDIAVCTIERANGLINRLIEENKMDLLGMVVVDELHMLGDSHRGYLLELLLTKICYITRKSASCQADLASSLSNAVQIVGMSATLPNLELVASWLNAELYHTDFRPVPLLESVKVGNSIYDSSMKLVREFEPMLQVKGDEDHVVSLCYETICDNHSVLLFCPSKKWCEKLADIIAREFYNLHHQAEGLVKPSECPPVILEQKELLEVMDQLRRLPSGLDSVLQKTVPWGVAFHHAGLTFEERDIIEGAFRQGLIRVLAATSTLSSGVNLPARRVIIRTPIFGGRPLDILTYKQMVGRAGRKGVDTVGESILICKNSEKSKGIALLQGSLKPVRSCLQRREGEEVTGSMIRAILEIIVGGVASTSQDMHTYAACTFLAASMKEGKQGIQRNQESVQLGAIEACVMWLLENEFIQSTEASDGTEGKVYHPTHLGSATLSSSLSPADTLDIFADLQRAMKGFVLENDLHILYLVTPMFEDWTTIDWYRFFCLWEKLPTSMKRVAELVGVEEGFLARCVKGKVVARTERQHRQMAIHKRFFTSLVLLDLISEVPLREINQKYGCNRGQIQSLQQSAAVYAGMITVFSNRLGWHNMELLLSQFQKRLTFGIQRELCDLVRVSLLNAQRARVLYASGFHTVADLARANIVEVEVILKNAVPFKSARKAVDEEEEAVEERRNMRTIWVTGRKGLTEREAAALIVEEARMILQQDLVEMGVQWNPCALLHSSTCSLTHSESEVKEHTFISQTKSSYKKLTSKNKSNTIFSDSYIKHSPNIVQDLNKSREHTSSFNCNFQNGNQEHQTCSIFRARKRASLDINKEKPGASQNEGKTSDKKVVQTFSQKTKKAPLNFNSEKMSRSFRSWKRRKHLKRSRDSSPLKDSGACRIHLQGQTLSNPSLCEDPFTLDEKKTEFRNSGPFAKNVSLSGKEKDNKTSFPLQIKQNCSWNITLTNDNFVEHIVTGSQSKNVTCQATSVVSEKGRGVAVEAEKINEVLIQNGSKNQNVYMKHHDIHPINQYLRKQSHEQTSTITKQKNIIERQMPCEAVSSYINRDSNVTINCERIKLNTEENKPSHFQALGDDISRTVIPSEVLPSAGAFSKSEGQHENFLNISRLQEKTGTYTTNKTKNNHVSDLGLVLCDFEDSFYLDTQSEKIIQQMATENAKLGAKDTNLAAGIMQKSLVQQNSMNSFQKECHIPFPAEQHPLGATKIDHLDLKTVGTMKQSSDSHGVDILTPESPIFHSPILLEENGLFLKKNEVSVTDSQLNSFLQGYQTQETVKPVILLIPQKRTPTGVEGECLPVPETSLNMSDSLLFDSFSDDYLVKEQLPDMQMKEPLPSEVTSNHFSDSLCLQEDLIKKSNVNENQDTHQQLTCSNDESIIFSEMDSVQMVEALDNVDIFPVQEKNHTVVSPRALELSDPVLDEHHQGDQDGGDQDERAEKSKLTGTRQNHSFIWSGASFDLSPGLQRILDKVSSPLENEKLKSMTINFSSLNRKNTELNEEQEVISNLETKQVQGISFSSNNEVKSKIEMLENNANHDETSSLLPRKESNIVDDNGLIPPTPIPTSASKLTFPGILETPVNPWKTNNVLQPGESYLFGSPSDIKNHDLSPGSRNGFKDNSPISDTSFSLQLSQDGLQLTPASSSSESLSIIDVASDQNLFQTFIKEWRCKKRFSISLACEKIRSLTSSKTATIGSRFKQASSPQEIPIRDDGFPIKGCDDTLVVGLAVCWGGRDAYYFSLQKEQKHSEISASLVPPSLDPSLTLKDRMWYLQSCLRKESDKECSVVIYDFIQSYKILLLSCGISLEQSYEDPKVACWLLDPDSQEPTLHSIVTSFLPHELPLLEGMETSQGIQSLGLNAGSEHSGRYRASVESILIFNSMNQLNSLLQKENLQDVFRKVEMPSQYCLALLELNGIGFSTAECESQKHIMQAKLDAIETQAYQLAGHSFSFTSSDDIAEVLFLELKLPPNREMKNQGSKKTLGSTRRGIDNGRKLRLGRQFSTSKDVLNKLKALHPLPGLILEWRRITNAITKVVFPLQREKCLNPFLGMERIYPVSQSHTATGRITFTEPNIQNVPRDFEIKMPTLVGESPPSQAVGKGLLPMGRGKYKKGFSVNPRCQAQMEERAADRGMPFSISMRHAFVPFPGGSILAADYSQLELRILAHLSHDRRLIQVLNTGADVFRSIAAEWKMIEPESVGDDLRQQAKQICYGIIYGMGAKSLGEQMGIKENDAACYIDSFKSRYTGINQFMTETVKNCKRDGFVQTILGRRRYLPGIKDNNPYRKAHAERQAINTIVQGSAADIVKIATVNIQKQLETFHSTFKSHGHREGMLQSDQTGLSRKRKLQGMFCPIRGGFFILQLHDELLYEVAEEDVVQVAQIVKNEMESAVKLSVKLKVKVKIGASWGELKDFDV
UniProt P09874: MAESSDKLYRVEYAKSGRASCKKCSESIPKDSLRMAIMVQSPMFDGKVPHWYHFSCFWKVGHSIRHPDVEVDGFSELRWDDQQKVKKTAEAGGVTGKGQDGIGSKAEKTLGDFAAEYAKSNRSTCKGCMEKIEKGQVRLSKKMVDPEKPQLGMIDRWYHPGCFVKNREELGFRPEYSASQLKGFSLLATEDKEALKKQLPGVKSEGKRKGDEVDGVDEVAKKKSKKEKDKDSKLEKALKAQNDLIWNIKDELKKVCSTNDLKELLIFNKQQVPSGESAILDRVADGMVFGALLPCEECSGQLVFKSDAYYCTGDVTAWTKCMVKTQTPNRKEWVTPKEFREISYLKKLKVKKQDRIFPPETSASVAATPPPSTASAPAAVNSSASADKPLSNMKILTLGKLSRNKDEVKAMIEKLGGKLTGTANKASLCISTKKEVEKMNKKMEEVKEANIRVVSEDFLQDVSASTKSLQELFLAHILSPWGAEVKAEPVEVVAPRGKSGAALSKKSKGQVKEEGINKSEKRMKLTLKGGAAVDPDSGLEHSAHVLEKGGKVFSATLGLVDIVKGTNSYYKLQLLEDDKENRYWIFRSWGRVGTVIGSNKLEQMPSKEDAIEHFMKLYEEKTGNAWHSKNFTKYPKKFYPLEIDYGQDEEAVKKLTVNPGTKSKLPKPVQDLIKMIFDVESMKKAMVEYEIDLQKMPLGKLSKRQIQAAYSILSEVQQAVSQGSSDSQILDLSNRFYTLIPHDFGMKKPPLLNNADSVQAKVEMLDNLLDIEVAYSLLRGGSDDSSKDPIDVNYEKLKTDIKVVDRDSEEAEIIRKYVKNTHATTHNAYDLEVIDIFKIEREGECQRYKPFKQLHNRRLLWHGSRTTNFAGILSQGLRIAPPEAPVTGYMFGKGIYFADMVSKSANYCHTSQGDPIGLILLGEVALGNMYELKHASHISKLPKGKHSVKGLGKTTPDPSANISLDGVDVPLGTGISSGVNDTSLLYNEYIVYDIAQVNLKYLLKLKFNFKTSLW

How the values were obtained:
[1] = molecular target: Polθ-FLAG-HA fusion protein (DNA polymerase theta) (human) (UniProt O75417); test: co-IP; anti-HA immunoprecipitates from total cell extracts of U2OS-EJ2-GFP cells expressing Polθ-FLAG-HA, 0, 20, 60 and 120 min after 10 Gy irradiation; Western blot
[2] = molecular target: Polθ-FLAG-HA fusion protein (DNA polymerase theta) (human) (UniProt O75417); test: co-IP; lysate (IP lysis buffer) of 293T cells transiently expressing Polθ-FLAG-HA; anti-HA magnetic beads and anti-PARP1, 16-18 h at 4 °C; Western blot with anti-FLAG and anti-PARP1
[3] = molecular target: Polθ-FLAG-HA fusion protein (DNA polymerase theta) (human) (UniProt O75417); test: co-IP; anti-HA and anti-γH2AX immunoprecipitates from chromatin extracts (sonicated) of U2OS wild-type and HPF1 KO cells expressing Polθ-FLAG-HA, 0-120 min after 10 Gy irradiation, with or without PARP1 inhibitor or PARG inhibitor; Western blot

Measured: binding

Poly(ADP-ribose) polymerase 1 (PARP1) (from UniProt P09874 1-1014)
binds: all assays above
